This test concerns B6C3F1 mice, Lewis lung carcinoma iv, survival T/C. The experiment in a line: NCI In Vivo Anticancer Drug Screen. Data for tumor model Lewis Lung Carcinoma (intravenous) in B6C3F1 mice. As to conditions: T/C endpoint: median survival time, higher T/C = longer survival. In short, it runs like this:
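Read-out is survival, expressed as the treated-group measurement over the vehicle control-group measurement. Animals bore a transplantable tumor and were given compound.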

The mark [1] stands for this setting: dose: 100.0 mg/kg/injection, schedule: Q01DX009 (ip), vehicle: saline.
[2] abbreviates: dose: 200.0 mg/kg/injection, schedule: Q01DX009 (ip), vehicle: saline.
The mark [3] stands for this setting: dose: 400.0 mg/kg/injection, schedule: Q01DX009 (ip), vehicle: saline with Tween-80.
Setting [4] is: dose: 12.0 mg/kg/injection, schedule: Q01DX009 (ip), vehicle: saline with Tween-80.
Setting [5] is: dose: 25.0 mg/kg/injection, schedule: Q01DX009 (ip), vehicle: saline with Tween-80.
Setting [6] is: dose: 50.0 mg/kg/injection, schedule: Q01DX009 (ip), vehicle: Klucel (hydroxypropylcellulose) (HPC).
Where [7] appears, read: dose: 25.0 mg/kg/injection, schedule: Q01DX009 (ip), vehicle: saline.
Setting [8] is: dose: 50.0 mg/kg/injection, schedule: Q01DX009 (ip), vehicle: saline with Tween-80.
Setting [9] is: dose: 32.0 mg/kg/injection, schedule: Q01DX009 (ip), vehicle: water.
[10] abbreviates: dose: 100.0 mg/kg/injection, schedule: Q01DX009 (ip), vehicle: saline with Tween-80.
Setting [11] is: dose: 200.0 mg/kg/injection, schedule: Q01DX009 (ip), vehicle: saline with Tween-80.
The mark [12] stands for this setting: dose: 400.0 mg/kg/injection, schedule: Q01DX009 (ip), vehicle: distilled water + Tween-80.
Where [13] appears, read: dose: 400.0 mg/kg/injection, schedule: Q01DX009 (ip), vehicle: saline.

The list shows only some results of the screen, not a fair sample: it is rich in T/C values a quarter to a half above the control, in often repeated tests (any T/C) and in doses without a T/C. Other doses and runs of a compound stand elsewhere. T/C is the treated group as % of the vehicle group. Some doses have a count of surviving animals in place of a T/C: the source holds a T/C of zero for them, seemingly a mark for toxic or unscored doses. Some doses without a T/C left all or most animals alive at the check, yet need not have been tolerated: the source hardly ever lists a survival T/C far under the control, and the zero likely stands for such cases as well. Survivors were counted at the toxicity check, usually on the fifth day, unless a day is given; later deaths do not show. Schedule codes are those of the source, taken here to give the interval after Q, in days (D) or hours (H), and the number of doses after X. Where survival is the endpoint, the PubChem record calls one and a half times the control and up active, and a quarter to a half above the control has no call in these data; cut-offs in other NCI protocols can differ. Some entries were tested several times; their values stand side by side, smallest first. Some T/C values carry the count of animals alive at the toxicity check (mostly the fifth day); without a count, all were alive then.

As for `COc1cccc2c1C(=O)c1c(O)c3c(c(O)c1C2=O)CC(O)(/C(C)=N/NC(=O)CCC(=O)N/N=C(\C)C1(O)Cc2c(O)c4c(c(O)c2C(OC2CC(N)C(O)C(C)O2)C1)C(=O)c1c(OC)cccc1C4=O)CC3OC1CC(N)C(O)C(C)O1` (configuration not stated), the T/C (dose: 3.0 mg/kg/injection, schedule: Q01DX009 (ip), vehicle: water) is 125 % of control [9 of 10 alive]. Further, the survivor count (dose: 24.0 mg/kg/injection, schedule: Q01DX009 (ip), vehicle: water) is on record as 10 of 10.

For the molecule `COC(=O)[C@@]12OC[C@]34[C@H]([C@@H](O)[C@@H]1O)[C@@]1(C)CC(=O)C(O)=C(C)[C@@H]1C[C@H]3OC(=O)[C@H](OC(=O)/C=C(\C)C(C)C)[C@@H]24`, the survivor count reads like this: (dose: 2.0 mg/kg/injection, schedule: Q01DX009 (ip), vehicle: saline + alcohol) 3 of 10; (dose: 4.0 mg/kg/injection, schedule: Q01DX009 (ip), vehicle: saline + alcohol) 4 of 10.

On to `Cn1/c2cc/c1=C(\c1ccc(S(=O)(=O)O)cc1)c1ccc([n-]1)/C(c1ccc(S(=O)(=O)O)cc1)=c1/cc/c([nH]1)=C(\c1ccc(S(=O)(=O)O)cc1)c1ccc([n-]1)/C=2c1ccc(S(=O)(=O)O)cc1.O.O=S(=O)(O)C(F)(F)F.[Cu+2]`, for which the survivor count by setting is: under setting [1], 7 of 10; under setting [2], 2 of 10.

Consider `CC(=O)C1=C(O)C2(O)C(=O)c3c(c(C)c4ccc(C)c(O)c4c3O)CC2C(N)C1=O` (configuration not stated), for which the survivor count (dose: 120.0 mg/kg/injection, schedule: Q01DX009 (ip), vehicle: saline + alcohol) is 1 of 10.

Turning to `CC(C)[C@](O)(C(=O)OCC1=CCN2CC[C@@H](O)[C@@H]12)[C@H](C)O`, for the setting “dose: 800.0 mg/kg/injection, schedule: Q01DX009 (ip), vehicle: water”, the survivor count is 3 of 10.

Turning to `O=C(O)CP(=O)(O)O`, the survivor count reads like this: (dose: 1600.0 mg/kg/injection, schedule: Q01DX009 (ip), vehicle: saline) 5 of 10; (dose: 3200.0 mg/kg/injection, schedule: Q01DX009 (ip), vehicle: saline) 0 of 10.

Regarding `CCCCOCN(COCCCC)C12CC3CC(CC(C3)C1)C2`, under setting [3], the survivor count is 3 of 10.

As for `NC(=S)c1ncn(C2OC(CO)C(O)C2O)c1N` (configuration not stated), the T/C (dose: 400.0 mg/kg/injection, schedule: Q01DX009 (ip), vehicle: suspension in saline) was 127 % of control.

As for `O=C1c2cccc3cc([N+](=O)[O-])cc(c23)C(=O)N1CCN1CCCC1`, the survivor count (dose: 1.5 mg/kg/injection, schedule: Q01DX009 (ip), vehicle: saline with Tween-80) was 9 of 10; the survivor count under setting [4] is 10 of 10; the survivor count (dose: 24.0 mg/kg/injection, schedule: Q01DX009 (ip), vehicle: saline with Tween-80) is listed as 4 of 10; the survivor count (dose: 48.0 mg/kg/injection, schedule: Q01DX009 (ip), vehicle: saline with Tween-80) is recorded as 0 of 10.

With `CCCCCCCCCCCCN1C(C)=CS/C1=C\C=C\c1scc(C)[n+]1CCCCCCCCCCCC`, the survivor count by setting is: (dose: 0.78 mg/kg/injection, schedule: Q01DX009 (ip), vehicle: saline with Tween-80) 9 of 10; (dose: 3.12 mg/kg/injection, schedule: Q01DX009 (ip), vehicle: saline with Tween-80) 10 of 10; (dose: 6.25 mg/kg/injection, schedule: Q01DX009 (ip), vehicle: saline with Tween-80) 10 of 10; under setting [4], 0 of 10; under setting [5], 0 of 10.

`N#C[Se-].c1ccc([Te+](c2ccccc2)c2ccccc2)cc1`: the survivor count under setting [6] was 0 of 10.

On to `O=C(O)c1cc(Cc2ccc(O)c(C(=O)O)c2)ccc1O` (tested in a mixture with another compound), for which, under “dose: 200.0 mg/kg/injection, schedule: Q01DX009 (ip), vehicle: Klucel (hydroxypropylcellulose) (HPC)”, the survivor count is 1 of 10.

Turning to `COc1cccc(C2NC(=O)c3c(n[nH]c3N)S2)c1O` (configuration not stated), the survivor count under setting [3] is 3 of 10.

With `ClCCCN1CCCCC1CCl` (configuration not stated), the survivor count under setting [7] is reported as 10 of 10.

Take `CCCCCCCCCCCCCCC/C([O-])=N/[N+](C)(C)CC(C)O` (configuration not stated): the survivor count reads like this: (dose: 400.0 mg/kg/injection, schedule: Q01DX001 (ip), vehicle: saline) 10 of 10; (dose: 800.0 mg/kg/injection, schedule: Q01DX001 (ip), vehicle: saline) 7 of 10.

Turning to `CCOC(=O)Nc1cc2c(c(N)n1)N=C(c1ccc(Cl)cc1Cl)CN2`, the survivor count under setting [5] is reported as 9 of 10 and the survivor count under setting [8] is recorded as 0 of 10.

`C[n+]1c(-c2cccc(OCCOCCOc3cccc(-c4c5cc(N)ccc5c5ccc(N)cc5[n+]4C)c3)c2)c2cc(N)ccc2c2ccc(N)cc21`: under setting [9], the T/C is 139 % of control. Further, the survivor count is, setting by setting: under setting [9], 10 of 10; (dose: 64.0 mg/kg/injection, schedule: Q01DX009 (ip), vehicle: water) 7 of 10; (dose: 128.0 mg/kg/injection, schedule: Q01DX009 (ip), vehicle: water) 0 of 10.

Turning to `O=NN(CCCl)C(=O)Oc1ccc(OC(=O)N(CCCl)N=O)cc1`, the survivor count was 10 of 10 (dose: 6.25 mg/kg/injection, schedule: Q01DX009 (ip), vehicle: Klucel (hydroxypropylcellulose) (HPC)); 10 of 10 (dose: 8.0 mg/kg/injection, schedule: Q01DX009 (ip), vehicle: Klucel (hydroxypropylcellulose) (HPC)); 10 of 10 (dose: 12.5 mg/kg/injection, schedule: Q01DX009 (ip), vehicle: Klucel (hydroxypropylcellulose) (HPC)); 8 of 10 (dose: 25.0 mg/kg/injection, schedule: Q01DX009 (ip), vehicle: Klucel (hydroxypropylcellulose) (HPC)); 10 of 10 under setting [6].

On to `c1ccc(P(CCNCCP(c2ccccc2)c2ccccc2)c2ccccc2)cc1`, for which the survivor count is, setting by setting: under setting [10], 6 of 10; under setting [11], 5 of 10; under setting [3], 2 of 10.

As for `CCc1nc(N)nc(N)c1-c1ccc(Cl)c(N=[N+]=[N-])c1`, the T/C was 127 % of control (dose: 200.0 mg/kg/injection, schedule: Q01DX009 (ip), vehicle: distilled water + Tween-80) and 139 % of control under setting [12]. Also, the survivor count by setting is: under setting [12], 10 of 10; (dose: 800.0 mg/kg/injection, schedule: Q01DX009 (ip), vehicle: distilled water + Tween-80) 4 of 10.

Regarding `Nc1ncn(C2OC(CO)C(O)C2O)c(=O)n1` (configuration not stated), the T/C was 131 % of control under setting [7]; 135 % of control (dose: 50.0 mg/kg/injection, schedule: Q01DX009 (ip), vehicle: saline); 129 and 133 % of control under setting [1]; 142 % of control under setting [2]. The survivor count runs as follows: (dose: 196.0 mg/kg/injection, schedule: Q01DX009 (ip), vehicle: saline) 10 of 10; (dose: 280.0 mg/kg/injection, schedule: Q01DX009 (ip), vehicle: saline) 9 of 9; under setting [13], 10 of 10; (dose: 571.0 mg/kg/injection, schedule: Q01DX009 (ip), vehicle: saline) 9 of 10.

`CNC(=O)Oc1ccc[nH]c1=O`: the survivor count (dose: 512.0 mg/kg/injection, schedule: Q01DX009 (ip), vehicle: saline with Tween-80) is on record as 7 of 10.

Take `Nc1nc(F)nc2c1ncn2C1OC(COP(=O)(O)O)C(O)C1O` (configuration not stated): the survivor count under setting [13] is 9 of 10.

Regarding `C=CCOCC1CO1` (configuration not stated), the survivor count under setting [13] is listed as 1 of 10.

On to `CC(=O)Nc1ccc(Nc2ccc(C(=C3C=CC(=[N+](C)CCC#N)C=C3)c3ccc(N(C)CCC#N)cc3)cc2)cc1`, for which the survivor count runs as follows: (dose: 12.5 mg/kg/injection, schedule: Q01DX009 (ip), vehicle: saline with Tween-80) 10 of 10; under setting [5], 10 of 10; under setting [8], 8 of 10; under setting [10], 1 of 10; under setting [11], 0 of 10; under setting [3], 0 of 10.

For the origin of these results see PubChem BioAssay AID276 (DTP/NCI, 2004).
